Among the data in paper PMC6399291 are binding values, retold here.

By UniProt entry, the sequences of proteins in these tests, tags left out. Where a name states a change or a piece, a line headed by the entry shows the natural chain unless it says otherwise. Chains listed by the source or under a name are the forms on record and can include a tag or linker.
UniProt P31946: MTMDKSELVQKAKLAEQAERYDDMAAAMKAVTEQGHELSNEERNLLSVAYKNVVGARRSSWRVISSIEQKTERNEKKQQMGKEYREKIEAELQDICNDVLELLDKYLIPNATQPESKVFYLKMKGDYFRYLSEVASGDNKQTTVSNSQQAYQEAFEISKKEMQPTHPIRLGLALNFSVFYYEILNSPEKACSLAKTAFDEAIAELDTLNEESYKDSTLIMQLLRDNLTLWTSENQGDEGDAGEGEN
UniProt P11802: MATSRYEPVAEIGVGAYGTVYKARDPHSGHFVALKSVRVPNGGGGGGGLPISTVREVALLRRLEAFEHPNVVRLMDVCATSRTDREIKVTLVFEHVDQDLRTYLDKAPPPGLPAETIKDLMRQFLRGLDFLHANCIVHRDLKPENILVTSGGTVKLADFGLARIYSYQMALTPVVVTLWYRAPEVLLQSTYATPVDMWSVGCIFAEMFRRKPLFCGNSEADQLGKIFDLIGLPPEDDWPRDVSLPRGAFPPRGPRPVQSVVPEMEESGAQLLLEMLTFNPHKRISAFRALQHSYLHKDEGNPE
PIKE-A (endogenous, LN229) (Q99490-2, form named): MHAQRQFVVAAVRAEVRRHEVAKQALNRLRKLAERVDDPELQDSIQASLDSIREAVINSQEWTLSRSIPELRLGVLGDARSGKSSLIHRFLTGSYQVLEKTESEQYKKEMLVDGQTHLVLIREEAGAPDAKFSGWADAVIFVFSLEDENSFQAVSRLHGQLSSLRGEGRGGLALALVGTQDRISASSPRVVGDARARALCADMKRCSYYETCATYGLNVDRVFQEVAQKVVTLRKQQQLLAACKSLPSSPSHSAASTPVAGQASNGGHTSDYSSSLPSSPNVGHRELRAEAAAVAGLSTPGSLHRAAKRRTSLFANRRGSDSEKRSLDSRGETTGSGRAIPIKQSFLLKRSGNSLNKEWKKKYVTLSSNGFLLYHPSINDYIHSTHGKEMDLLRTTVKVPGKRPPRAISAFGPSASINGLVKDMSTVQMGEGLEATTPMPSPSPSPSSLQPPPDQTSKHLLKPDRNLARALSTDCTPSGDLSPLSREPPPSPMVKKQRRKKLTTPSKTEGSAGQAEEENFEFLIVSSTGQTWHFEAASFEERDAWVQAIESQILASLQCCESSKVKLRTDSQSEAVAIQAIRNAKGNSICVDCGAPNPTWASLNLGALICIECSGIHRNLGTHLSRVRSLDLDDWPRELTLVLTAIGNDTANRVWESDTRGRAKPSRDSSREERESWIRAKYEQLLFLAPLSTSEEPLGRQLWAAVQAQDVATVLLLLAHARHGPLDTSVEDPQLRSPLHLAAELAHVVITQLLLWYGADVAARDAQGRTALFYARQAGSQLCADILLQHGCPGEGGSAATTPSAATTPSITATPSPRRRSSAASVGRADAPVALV
myc-PIKE-A S351/377A (Q99490-2, form named): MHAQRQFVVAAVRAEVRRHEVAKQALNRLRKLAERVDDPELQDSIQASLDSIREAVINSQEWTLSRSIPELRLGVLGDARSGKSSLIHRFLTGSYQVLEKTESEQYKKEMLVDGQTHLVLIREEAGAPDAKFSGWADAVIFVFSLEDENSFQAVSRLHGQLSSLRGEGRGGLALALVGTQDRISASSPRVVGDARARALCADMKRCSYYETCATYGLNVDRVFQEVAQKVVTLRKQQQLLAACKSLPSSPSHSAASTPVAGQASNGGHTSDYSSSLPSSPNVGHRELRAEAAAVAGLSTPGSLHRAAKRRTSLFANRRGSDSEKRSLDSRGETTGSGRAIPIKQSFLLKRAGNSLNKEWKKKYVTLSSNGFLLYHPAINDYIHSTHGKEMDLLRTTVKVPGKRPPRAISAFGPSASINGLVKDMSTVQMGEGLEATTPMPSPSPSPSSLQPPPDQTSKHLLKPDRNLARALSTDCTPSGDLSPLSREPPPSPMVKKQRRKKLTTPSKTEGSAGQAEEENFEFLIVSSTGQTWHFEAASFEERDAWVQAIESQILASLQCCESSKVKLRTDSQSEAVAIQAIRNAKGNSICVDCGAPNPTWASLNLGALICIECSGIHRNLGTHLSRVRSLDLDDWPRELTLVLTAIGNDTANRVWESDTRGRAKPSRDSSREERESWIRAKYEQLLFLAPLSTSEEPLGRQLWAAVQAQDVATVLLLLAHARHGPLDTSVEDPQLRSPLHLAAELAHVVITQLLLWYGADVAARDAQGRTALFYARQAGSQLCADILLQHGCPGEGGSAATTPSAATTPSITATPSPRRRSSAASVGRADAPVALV
myc-PIKE-A S351/377D (Q99490-2, form named): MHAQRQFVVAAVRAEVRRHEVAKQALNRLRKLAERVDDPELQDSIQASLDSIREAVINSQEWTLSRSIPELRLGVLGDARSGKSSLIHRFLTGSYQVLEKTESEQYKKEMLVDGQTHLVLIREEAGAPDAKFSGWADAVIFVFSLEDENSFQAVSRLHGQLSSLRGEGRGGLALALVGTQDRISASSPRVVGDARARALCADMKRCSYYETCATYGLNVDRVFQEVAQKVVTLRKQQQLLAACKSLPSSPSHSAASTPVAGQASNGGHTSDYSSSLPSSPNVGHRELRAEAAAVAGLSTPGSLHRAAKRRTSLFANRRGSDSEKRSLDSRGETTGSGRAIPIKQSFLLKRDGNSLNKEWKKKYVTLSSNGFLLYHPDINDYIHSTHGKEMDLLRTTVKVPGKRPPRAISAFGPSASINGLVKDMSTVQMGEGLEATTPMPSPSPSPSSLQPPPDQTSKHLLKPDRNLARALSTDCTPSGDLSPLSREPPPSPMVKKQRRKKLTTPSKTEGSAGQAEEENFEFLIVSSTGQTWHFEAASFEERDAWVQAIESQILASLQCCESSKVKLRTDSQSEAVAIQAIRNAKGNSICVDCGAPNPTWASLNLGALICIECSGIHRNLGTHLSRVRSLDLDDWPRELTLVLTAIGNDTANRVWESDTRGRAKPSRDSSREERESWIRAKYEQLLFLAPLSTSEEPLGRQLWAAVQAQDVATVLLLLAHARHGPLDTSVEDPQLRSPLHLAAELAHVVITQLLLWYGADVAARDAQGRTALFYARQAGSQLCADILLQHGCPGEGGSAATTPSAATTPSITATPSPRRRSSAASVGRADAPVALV

The target of assay [1] is GFP-14-3-3β (UniProt P31946). The assay can be described thus: co-IP; HEK293 co-transfected with myc-PIKE-A WT or mutants and GFP-14-3-3β; GFP-14-3-3β immunoprecipitated, blot with anti-myc.
Assay [2] concerns the target GFP-14-3-3β (UniProt P31946). The assay can be described thus: co-IP; HEK293 co-transfected with GST-PIKE-A and GFP-14-3-3β; untreated, serum starved 12 h or hypoxia (1% O2) 2 or 12 h; which partner was precipitated is not stated.
The target in assay [3] is CDK4 (endogenous, LN229) (human (endogenous in LN229)) (UniProt P11802). The assay can be described thus: co-IP; endogenous proteins, nuclear fraction of LN229 cells, with or without 12 h serum starvation (also AICAR, Metformin, A23187 or H2O2); IP with anti-CDK4, blot with anti-PIKE-A.
Assay [4] has the same target. Kind of assay: co-IP; endogenous proteins, LN229 whole cell lysate, with or without 12 h serum starvation (also AICAR, Metformin, A23187 or H2O2); IP with anti-CDK4, blot with anti-PIKE-A.

These are yes or no findings as the source states them, for the method shown. In cells and extracts the contact can be indirect. Some results given as binding are weak or reduced against the parent protein; the word gives no strength.

Take “myc-PIKE-A WT (from UniProt Q99490-2 1-836)”: the binding entry with GFP-14-3-3β [1] was “binds”.

Turning to “GST-PIKE-A WT (from UniProt Q99490-2 1-836)”, in the assay with GFP-14-3-3β [2], the binding entry is given as “binds”.

Regarding “PIKE-A (endogenous, LN229) (from UniProt Q99490-2 1-836)”, the binding result in assay [3] and in assay [4] was “binds” throughout.

For the substance “myc-PIKE-A S351/377A (from UniProt Q99490-2 1-836)”, the binding result in the assay with GFP-14-3-3β [1] is “binds”.

As to “myc-PIKE-A S351/377D (from UniProt Q99490-2 1-836)”, the binding entry in the assay with GFP-14-3-3β [1] is “binds”.
